According to the supplement of paper PMC12823440, “Inhibitors supercharge kinase turnover through native proteolytic circuits” (Nature, 2025):
Some of the results follow. The calls rarely recur for the same compound in another form.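 In K562 cells expressing nanoluciferase-fused kinases, luminescence was recorded at 4 h intervals between 2 and 18 h, normalized as percent of control with DMSO at 100% and a positive control at 0%. A significant (2 sigma) signal drop marks a time point as decreased. The authors' rule for a hit is not shown and takes in more than the number of time points.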

The chains behind the UniProt entries cited, without tags or fusion partners. Where a name states a change or a piece, a line headed by the entry shows the natural chain unless it says otherwise.
UniProt P06241, whole entry, looked up: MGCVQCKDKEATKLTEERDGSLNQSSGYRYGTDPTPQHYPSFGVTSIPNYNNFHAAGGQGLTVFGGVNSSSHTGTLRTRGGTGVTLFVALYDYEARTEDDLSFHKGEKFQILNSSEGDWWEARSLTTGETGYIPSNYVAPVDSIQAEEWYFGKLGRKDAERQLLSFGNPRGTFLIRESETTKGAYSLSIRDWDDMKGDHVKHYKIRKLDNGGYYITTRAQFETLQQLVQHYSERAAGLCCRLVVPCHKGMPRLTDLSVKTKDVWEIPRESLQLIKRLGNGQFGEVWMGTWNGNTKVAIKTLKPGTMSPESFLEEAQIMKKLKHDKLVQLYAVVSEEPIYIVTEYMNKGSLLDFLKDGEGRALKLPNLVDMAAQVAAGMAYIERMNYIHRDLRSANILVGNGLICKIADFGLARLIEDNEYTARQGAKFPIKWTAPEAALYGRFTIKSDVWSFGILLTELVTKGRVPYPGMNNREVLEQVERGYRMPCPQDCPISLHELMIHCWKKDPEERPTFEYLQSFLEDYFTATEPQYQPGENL
UniProt P49840: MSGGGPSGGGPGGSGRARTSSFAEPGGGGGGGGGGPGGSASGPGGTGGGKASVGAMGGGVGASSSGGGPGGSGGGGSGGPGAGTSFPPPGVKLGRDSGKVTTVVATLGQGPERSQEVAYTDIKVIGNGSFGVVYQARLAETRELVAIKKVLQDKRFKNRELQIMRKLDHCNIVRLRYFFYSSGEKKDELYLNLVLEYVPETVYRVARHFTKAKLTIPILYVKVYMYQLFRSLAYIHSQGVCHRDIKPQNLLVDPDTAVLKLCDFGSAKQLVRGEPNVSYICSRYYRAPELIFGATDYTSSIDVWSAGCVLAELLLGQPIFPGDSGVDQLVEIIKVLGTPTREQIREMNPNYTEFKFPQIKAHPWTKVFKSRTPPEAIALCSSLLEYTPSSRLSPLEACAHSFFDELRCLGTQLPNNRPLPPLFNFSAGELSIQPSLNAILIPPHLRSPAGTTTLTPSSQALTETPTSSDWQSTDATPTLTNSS
UniProt Q9Y616: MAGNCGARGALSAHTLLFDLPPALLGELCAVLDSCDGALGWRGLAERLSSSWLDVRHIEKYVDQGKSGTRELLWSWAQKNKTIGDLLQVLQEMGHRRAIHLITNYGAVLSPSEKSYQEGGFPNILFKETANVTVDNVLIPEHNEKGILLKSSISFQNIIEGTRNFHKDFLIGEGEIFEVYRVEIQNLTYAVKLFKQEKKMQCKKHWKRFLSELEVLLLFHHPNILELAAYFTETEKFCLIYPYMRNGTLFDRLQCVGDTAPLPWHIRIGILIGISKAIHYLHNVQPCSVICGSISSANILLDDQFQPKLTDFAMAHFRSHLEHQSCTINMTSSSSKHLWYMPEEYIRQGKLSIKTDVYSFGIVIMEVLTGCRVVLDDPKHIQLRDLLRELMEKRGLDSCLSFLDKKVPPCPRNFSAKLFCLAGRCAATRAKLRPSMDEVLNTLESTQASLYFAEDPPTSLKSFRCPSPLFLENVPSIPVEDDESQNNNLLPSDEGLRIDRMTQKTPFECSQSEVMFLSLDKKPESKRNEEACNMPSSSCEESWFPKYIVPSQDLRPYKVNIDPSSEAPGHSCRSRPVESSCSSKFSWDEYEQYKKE
UniProt P06239: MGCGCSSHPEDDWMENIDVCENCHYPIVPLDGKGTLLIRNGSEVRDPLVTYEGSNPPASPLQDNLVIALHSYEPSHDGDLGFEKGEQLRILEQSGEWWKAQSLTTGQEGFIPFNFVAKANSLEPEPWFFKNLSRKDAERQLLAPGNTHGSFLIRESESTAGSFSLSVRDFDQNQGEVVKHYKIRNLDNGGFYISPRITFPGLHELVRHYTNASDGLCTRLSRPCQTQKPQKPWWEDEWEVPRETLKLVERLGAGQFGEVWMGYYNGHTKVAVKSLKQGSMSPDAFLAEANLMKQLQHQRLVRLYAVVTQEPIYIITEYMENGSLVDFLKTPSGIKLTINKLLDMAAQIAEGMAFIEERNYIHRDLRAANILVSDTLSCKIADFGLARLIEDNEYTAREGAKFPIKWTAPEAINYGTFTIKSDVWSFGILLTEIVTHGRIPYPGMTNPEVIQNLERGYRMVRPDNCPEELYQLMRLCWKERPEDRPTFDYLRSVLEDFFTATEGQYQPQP
UniProt P53667: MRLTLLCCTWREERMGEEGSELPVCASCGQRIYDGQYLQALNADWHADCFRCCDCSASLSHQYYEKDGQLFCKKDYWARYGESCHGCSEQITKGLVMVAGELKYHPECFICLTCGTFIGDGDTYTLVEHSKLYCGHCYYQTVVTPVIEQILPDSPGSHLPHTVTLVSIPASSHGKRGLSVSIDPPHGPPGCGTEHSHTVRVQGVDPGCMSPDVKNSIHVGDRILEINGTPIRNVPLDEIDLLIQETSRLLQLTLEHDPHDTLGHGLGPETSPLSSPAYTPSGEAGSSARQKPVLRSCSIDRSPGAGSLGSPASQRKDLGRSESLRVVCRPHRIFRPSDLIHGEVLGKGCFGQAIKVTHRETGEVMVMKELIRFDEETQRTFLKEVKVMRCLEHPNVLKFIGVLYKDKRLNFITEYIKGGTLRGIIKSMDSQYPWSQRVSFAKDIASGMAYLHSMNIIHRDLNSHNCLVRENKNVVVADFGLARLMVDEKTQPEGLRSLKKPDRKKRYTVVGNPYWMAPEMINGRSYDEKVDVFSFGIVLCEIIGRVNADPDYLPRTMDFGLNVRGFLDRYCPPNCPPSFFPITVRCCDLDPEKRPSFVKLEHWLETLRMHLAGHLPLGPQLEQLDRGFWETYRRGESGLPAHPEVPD
UniProt P07948: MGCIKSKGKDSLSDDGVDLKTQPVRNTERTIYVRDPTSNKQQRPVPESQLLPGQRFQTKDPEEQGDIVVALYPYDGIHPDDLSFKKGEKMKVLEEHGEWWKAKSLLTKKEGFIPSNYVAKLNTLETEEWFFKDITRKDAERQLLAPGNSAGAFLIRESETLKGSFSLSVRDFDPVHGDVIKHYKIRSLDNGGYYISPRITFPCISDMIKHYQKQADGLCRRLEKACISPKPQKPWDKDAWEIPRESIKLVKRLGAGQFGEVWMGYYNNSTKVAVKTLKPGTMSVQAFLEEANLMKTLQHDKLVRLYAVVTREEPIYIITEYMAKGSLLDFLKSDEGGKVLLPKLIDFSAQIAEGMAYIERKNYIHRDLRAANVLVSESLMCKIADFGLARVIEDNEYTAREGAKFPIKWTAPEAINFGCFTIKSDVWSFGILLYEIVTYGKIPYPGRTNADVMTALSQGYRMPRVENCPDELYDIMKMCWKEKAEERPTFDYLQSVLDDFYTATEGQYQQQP
UniProt Q12851: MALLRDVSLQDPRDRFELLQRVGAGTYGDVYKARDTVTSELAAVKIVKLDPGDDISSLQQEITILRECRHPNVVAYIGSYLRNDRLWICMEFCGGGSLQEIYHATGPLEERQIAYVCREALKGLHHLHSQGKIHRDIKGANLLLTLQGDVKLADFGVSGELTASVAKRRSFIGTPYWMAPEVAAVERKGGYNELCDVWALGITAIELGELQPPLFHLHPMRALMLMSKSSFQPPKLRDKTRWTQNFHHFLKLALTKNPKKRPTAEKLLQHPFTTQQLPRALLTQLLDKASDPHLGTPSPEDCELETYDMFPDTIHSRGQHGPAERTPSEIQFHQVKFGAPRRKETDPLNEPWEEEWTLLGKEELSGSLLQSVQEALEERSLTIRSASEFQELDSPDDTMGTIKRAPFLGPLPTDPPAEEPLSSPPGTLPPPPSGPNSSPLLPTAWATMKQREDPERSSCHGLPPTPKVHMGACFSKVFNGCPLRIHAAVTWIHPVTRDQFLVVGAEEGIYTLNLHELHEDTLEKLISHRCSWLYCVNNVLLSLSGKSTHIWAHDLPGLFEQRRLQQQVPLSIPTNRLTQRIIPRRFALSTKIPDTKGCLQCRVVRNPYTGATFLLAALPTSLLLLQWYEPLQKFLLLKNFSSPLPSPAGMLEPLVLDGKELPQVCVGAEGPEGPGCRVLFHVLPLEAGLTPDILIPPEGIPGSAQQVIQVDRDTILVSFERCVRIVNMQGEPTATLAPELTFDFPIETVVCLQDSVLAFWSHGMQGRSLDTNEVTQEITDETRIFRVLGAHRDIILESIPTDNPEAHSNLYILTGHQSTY
UniProt P28482, whole entry: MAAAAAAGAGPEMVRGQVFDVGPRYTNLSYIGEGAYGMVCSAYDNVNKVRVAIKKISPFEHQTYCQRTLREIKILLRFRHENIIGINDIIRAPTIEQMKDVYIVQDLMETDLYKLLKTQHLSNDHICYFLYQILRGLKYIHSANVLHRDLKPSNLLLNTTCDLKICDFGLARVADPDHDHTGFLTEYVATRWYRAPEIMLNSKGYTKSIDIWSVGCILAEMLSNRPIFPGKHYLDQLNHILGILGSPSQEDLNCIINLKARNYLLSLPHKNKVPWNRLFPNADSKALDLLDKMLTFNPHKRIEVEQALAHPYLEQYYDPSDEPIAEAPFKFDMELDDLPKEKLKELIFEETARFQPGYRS
UniProt P31152, whole entry: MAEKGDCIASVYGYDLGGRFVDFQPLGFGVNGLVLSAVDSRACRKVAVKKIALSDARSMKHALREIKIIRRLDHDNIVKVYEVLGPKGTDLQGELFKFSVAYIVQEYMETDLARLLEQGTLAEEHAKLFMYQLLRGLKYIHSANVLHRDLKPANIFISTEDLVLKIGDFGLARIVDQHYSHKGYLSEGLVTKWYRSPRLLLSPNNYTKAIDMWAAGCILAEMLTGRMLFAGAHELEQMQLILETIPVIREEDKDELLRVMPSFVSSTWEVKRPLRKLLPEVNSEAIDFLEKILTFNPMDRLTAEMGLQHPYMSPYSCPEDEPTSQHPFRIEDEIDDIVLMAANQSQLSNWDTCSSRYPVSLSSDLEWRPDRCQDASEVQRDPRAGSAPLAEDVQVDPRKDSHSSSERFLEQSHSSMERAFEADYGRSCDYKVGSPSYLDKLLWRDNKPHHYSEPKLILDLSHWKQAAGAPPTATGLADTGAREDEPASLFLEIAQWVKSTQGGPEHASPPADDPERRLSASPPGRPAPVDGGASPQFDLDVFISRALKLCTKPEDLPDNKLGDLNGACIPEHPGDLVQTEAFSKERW
UniProt P49137, whole entry, looked up: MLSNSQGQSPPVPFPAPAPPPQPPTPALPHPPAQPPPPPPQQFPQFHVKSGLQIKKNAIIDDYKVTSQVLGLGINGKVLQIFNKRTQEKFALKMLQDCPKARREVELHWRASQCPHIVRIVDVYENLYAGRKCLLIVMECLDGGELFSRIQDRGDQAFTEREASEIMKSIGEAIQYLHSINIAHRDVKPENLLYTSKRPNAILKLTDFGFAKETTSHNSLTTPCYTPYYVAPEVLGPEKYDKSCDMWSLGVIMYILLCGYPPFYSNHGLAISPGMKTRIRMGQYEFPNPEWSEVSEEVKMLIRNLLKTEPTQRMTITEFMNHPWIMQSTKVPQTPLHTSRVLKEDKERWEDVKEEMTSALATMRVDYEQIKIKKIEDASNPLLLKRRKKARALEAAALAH
UniProt Q16620, whole entry, looked up: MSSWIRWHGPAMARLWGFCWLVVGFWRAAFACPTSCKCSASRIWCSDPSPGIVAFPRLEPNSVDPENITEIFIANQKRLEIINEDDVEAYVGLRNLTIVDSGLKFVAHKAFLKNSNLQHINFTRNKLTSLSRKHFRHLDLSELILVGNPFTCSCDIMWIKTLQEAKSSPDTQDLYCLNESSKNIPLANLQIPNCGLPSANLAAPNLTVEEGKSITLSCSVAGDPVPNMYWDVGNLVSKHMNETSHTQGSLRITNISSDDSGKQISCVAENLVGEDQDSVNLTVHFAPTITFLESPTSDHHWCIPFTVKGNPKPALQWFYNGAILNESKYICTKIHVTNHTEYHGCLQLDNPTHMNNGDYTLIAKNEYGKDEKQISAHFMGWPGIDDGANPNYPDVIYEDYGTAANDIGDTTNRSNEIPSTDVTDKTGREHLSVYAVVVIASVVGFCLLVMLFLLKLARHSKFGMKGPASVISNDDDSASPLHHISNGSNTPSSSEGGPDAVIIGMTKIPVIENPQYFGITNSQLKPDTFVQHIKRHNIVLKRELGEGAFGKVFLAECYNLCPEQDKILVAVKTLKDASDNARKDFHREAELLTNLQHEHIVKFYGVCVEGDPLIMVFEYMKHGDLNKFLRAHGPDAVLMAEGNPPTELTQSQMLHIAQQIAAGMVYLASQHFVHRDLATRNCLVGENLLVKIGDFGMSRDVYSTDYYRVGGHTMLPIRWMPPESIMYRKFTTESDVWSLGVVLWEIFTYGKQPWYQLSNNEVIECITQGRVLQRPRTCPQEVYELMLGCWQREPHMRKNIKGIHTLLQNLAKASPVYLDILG

How the values were obtained:
Experiment in all cases: number of time points (of 5) at which kinase-Nluc abundance scored as decreased, DMSO-normalised (count); higher = more persistent destabilization
Settings in all cases: K562; 2-18 h
FLT3 = FLT3 (UniProt P36888)
FYN = FYN (UniProt P06241)
GSK3A = GSK3A (UniProt P49840)
HER2 = HER2 (UniProt P04626)
INSRR = INSRR (UniProt P14616)
IRAK3 = IRAK3 (UniProt Q9Y616)
JAK1 = JAK1 (UniProt P23458)
LCK = LCK (UniProt P06239)
LIMK1 = LIMK1 (UniProt P53667)
LIMK2 = LIMK2 (UniProt P53671)
LMTK2 = LMTK2 (UniProt Q8IWU2)
LYN = LYN (UniProt P07948)
MAP2K1 = MAP2K1 (UniProt Q02750)
MAP2K2 = MAP2K2 (UniProt P36507)
MAP4K2 = MAP4K2 (UniProt Q12851)
MAPK1 = MAPK1 (UniProt P28482)
MAPK4 = MAPK4 (UniProt P31152)
MAPKAPK2 = MAPKAPK2 (UniProt P49137)
MKNK1 = MKNK1 (UniProt Q9BUB5)
NTRK2 = NTRK2 (UniProt Q16620)

Measured: number of time points

N#Cc1ccc(-c2cnc3ccc(-c4ccc(C(=O)N5CCOCC5)cc4)cn23)cc1 (10 µM)
0: FLT3 | FYN | GSK3A | HER2 | INSRR | IRAK3 | JAK1 | LCK | LIMK1 | LIMK2 | LMTK2 | LYN | MAP2K1 | MAP2K2 | MAP4K2 | MAPK1 | MAPK4 | MAPKAPK2 | MKNK1 | NTRK2

Nc1ncc(-c2ccnc(Nc3ccncc3)n2)c(CC2CC2)n1 (10 µM)
0: FLT3 | GSK3A | HER2 | INSRR | IRAK3 | LCK | LIMK1 | LIMK2 | LYN | MAP2K1 | MAP2K2 | MAP4K2 | MAPK1 | MAPK4 | MAPKAPK2 | MKNK1 | NTRK2
3: JAK1 | LMTK2
2: FYN

Cc1cc([C@@H](C)Nc2ccccc2C(=O)O)c2nc(N3CCOCC3)cc(=O)n2c1 (10 µM)
0: FLT3 | FYN | GSK3A | HER2 | INSRR | IRAK3 | JAK1 | LCK | LIMK1 | LIMK2 | LMTK2 | LYN | MAP2K1 | MAP2K2 | MAP4K2 | MAPK1 | MAPK4 | MAPKAPK2 | MKNK1 | NTRK2

Cc1c(C(=O)Nc2ccc(Oc3ccnc4[nH]cc(-c5ccccc5)c34)c(F)c2)c(=O)n(-c2ccc(F)cc2)n1C (10 µM)
2: LIMK1
1: INSRR
0: FLT3 | FYN | GSK3A | HER2 | IRAK3 | JAK1 | LCK | LIMK2 | LMTK2 | LYN | MAP2K1 | MAP2K2 | MAP4K2 | MAPK1 | MAPK4 | MAPKAPK2 | MKNK1 | NTRK2

2 consecutive records from above:
N#Cc1ccc(-c2cnc3ccc(-c4ccc(C(=O)N5CCOCC5)cc4)cn23)cc1 (10 µM)
0: FLT3 | FYN | GSK3A | HER2 | INSRR | IRAK3 | JAK1 | LCK | LIMK1 | LIMK2 | LMTK2 | LYN | MAP2K1 | MAP2K2 | MAP4K2 | MAPK1 | MAPK4 | MAPKAPK2 | MKNK1 | NTRK2

Nc1ncc(-c2ccnc(Nc3ccncc3)n2)c(CC2CC2)n1 (10 µM)
0: FLT3 | GSK3A | HER2 | INSRR | IRAK3 | LCK | LIMK1 | LIMK2 | LYN | MAP2K1 | MAP2K2 | MAP4K2 | MAPK1 | MAPK4 | MAPKAPK2 | MKNK1 | NTRK2
3: JAK1 | LMTK2
2: FYN

(more compounds)

COc1ccc2c(Oc3ccc4c(C(=O)Nc5ccccc5N)cccc4c3)ccnc2c1 [Chiauranib] (10 µM)
0: FLT3 | FYN | GSK3A | INSRR | IRAK3 | LCK | LMTK2 | LYN | MAP2K1 | MAP2K2 | MAP4K2 | MAPK1 | MAPK4 | MAPKAPK2 | MKNK1 | NTRK2
4: HER2
3: JAK1 | LIMK1 | LIMK2

Cc1nc[nH]c1CN1CCN(C(=O)N[C@@H](CC(C)C)C(=O)O)[C@@H](Cc2ccccc2)C1=O (10 µM)
0: FLT3 | FYN | GSK3A | HER2 | INSRR | IRAK3 | JAK1 | LCK | LIMK1 | LIMK2 | LMTK2 | LYN | MAP2K1 | MAP2K2 | MAP4K2 | MAPK1 | MAPK4 | MAPKAPK2 | MKNK1 | NTRK2

CC1(N)CCN(c2cccnc2NC(=O)c2nc(-c3ncccc3C(F)(F)F)cnc2N)CC1 [Darovasertib] (10 µM)
0: FLT3 | FYN | GSK3A | HER2 | INSRR | IRAK3 | JAK1 | LCK | LIMK1 | LIMK2 | LMTK2 | LYN | MAP2K1 | MAP2K2 | MAP4K2 | MAPK1 | MAPK4 | MAPKAPK2 | MKNK1 | NTRK2

Nc1nc(N)c2nc(-c3cccc(O)c3)c(-c3cccc(O)c3)nc2n1 (10 µM)
0: FLT3 | FYN | GSK3A | HER2 | INSRR | IRAK3 | JAK1 | LCK | LIMK1 | LIMK2 | LMTK2 | LYN | MAP2K1 | MAP2K2 | MAP4K2 | MAPK1 | MAPK4 | MAPKAPK2 | MKNK1 | NTRK2

CC(C)[C@H](CO)Nc1nc(Nc2cccc(Cl)c2)c2ncn(C(C)C)c2n1 [Purvalanol A] (10 µM)
0: FLT3 | FYN | GSK3A | INSRR | IRAK3 | JAK1 | LCK | LIMK1 | LIMK2 | LMTK2 | LYN | MAP2K1 | MAP2K2 | MAP4K2 | MAPK1 | MAPK4 | MAPKAPK2 | MKNK1 | NTRK2
1: HER2

O=C(O)c1ccc(/C=C/S(=O)(=O)Cc2ccc(Cl)cc2)cc1 [Recilisib] (10 µM)
0: FLT3 | FYN | GSK3A | HER2 | INSRR | IRAK3 | JAK1 | LCK | LIMK1 | LIMK2 | LMTK2 | LYN | MAP2K1 | MAP2K2 | MAP4K2 | MAPK1 | MAPK4 | MAPKAPK2 | MKNK1 | NTRK2

COCCOCCc1c(C)c2cc(OC)c(O)c(C=O)c2oc1=O (10 µM)
0: FLT3 | FYN | GSK3A | HER2 | INSRR | IRAK3 | JAK1 | LCK | LIMK1 | LIMK2 | LMTK2 | LYN | MAP2K1 | MAP2K2 | MAP4K2 | MAPK1 | MAPK4 | MAPKAPK2 | MKNK1 | NTRK2

C=CC(=O)Nc1ccc(C(=O)Nc2[nH]nc3c2CN(C(=O)N[C@H](CN(C)C)c2ccccc2)C3(C)C)cc1 (10 µM)
4: INSRR
2: FLT3 | HER2 | IRAK3 | NTRK2
0: GSK3A | LCK | LIMK1 | LIMK2 | MAP2K1 | MAP2K2 | MAP4K2 | MAPK1 | MAPK4 | MAPKAPK2 | MKNK1
1: JAK1 | LYN
3: FYN | LMTK2

O=C(O)c1cc(N(Cc2ccccc2O)Cc2cc(O)ccc2O)ccc1O [Lavendustin A] (10 µM)
0: FLT3 | GSK3A | HER2 | INSRR | IRAK3 | JAK1 | LCK | LIMK1 | LMTK2 | LYN | MAP2K1 | MAP2K2 | MAP4K2 | MAPK1 | MAPK4 | MAPKAPK2 | MKNK1 | NTRK2
1: FYN | LIMK2

O=C(Nc1cccc(-c2nc(-c3ccc(NC(=O)c4cccnc4)cc3Cl)no2)c1)Nc1ccc(NC(=O)C2CC2)c(C(F)(F)F)c1 (2.5 µM)
0: FLT3 | FYN | GSK3A | HER2 | INSRR | IRAK3 | JAK1 | LCK | LIMK1 | LIMK2 | LMTK2 | LYN | MAP2K1 | MAP2K2 | MAP4K2 | MAPK1 | MAPK4 | MAPKAPK2 | MKNK1 | NTRK2

N#Cc1cnc2c(Cl)cc(NCc3cn(CCN4CCCCCC4)nn3)cc2c1Nc1ccc(F)c(Cl)c1 [Cot inhibitor-1] (10 µM)
0: FLT3 | FYN | GSK3A | HER2 | INSRR | IRAK3 | JAK1 | LCK | LIMK1 | LMTK2 | LYN | MAP2K1 | MAP2K2 | MAP4K2 | MAPK1 | MAPK4 | MAPKAPK2 | MKNK1 | NTRK2
4: LIMK2

O=c1c2c([nH]n1-c1nc3ccccc3s1)CCCC2 (10 µM)
0: FLT3 | FYN | GSK3A | HER2 | INSRR | IRAK3 | JAK1 | LCK | LIMK1 | LIMK2 | LMTK2 | LYN | MAP2K1 | MAP2K2 | MAP4K2 | MAPK1 | MAPK4 | MAPKAPK2 | MKNK1 | NTRK2

COc1cc(-c2cc(OP(=O)(O)O)cc(-c3cc(OC)c(OC)c(OC)c3)c2)cc(OC)c1OC [Stafia-1] (10 µM)
0: FLT3 | FYN | GSK3A | HER2 | INSRR | IRAK3 | JAK1 | LCK | LIMK1 | LIMK2 | LMTK2 | LYN | MAP2K1 | MAP2K2 | MAP4K2 | MAPK1 | MAPK4 | MAPKAPK2 | MKNK1 | NTRK2

CC(C)=CC[C@@H](O)C1=CC(=O)c2c(O)ccc(O)c2C1=O [Shikonin] (10 µM)
0: FLT3 | FYN | GSK3A | HER2 | INSRR | IRAK3 | JAK1 | LCK | LIMK1 | LIMK2 | LMTK2 | LYN | MAP2K1 | MAP2K2 | MAP4K2 | MAPK1 | MAPK4 | MAPKAPK2 | MKNK1 | NTRK2

C=C1C(=O)[C@@]23[C@H](O)C[C@@H]4C(C)(C)C(=O)CC[C@@]4(C)[C@@H]2CC[C@@H]1[C@H]3O [Glaucocalyxin A] (2.5 µM)
3: FYN
0: FLT3 | GSK3A | HER2 | INSRR | IRAK3 | JAK1 | LCK | LIMK1 | LIMK2 | LMTK2 | LYN | MAP2K1 | MAP2K2 | MAP4K2 | MAPK1 | MAPK4 | MAPKAPK2 | MKNK1 | NTRK2

CNC(=O)c1ccc2c(C(=Nc3cccc(CN(C)C)c3)c3ccccc3)c(O)[nH]c2c1 [MEK inhibitor] (10 µM)
0: FLT3 | FYN | GSK3A | HER2 | INSRR | IRAK3 | JAK1 | LCK | LIMK1 | LIMK2 | LMTK2 | LYN | MAP2K1 | MAP2K2 | MAP4K2 | MAPK1 | MAPK4 | MAPKAPK2 | MKNK1 | NTRK2

COc1cc2cc(Oc3ccc4ccc(=O)oc4c3)c(=O)oc2cc1O [Daphnoretin] (10 µM)
0: FLT3 | FYN | GSK3A | HER2 | INSRR | IRAK3 | JAK1 | LCK | LIMK1 | LIMK2 | LMTK2 | LYN | MAP2K1 | MAP2K2 | MAP4K2 | MAPK1 | MAPK4 | MAPKAPK2 | MKNK1 | NTRK2

O=C(Nc1ccc(Cl)cc1)C1CCCN(C(=O)c2cc(C(F)(F)F)cc(C(F)(F)F)c2)C1 (stereo not given) (10 µM)
2: HER2
1: LIMK2
0: FLT3 | FYN | GSK3A | INSRR | IRAK3 | JAK1 | LCK | LMTK2 | LYN | MAP2K1 | MAP2K2 | MAP4K2 | MAPK1 | MAPK4 | MAPKAPK2 | MKNK1 | NTRK2
4: LIMK1

COc1cc2ncnc(Nc3ccc(O)c(Br)c3)c2cc1OC (10 µM)
0: FLT3 | FYN | GSK3A | HER2 | INSRR | IRAK3 | JAK1 | LCK | LIMK1 | LIMK2 | LMTK2 | LYN | MAP2K1 | MAP2K2 | MAP4K2 | MAPK1 | MAPK4 | MAPKAPK2 | MKNK1 | NTRK2

CNC(=O)c1ccc2c(c1)ncn2-c1ccc(CC(=O)OC(C)(C)C)cc1 (10 µM)
0: FLT3 | FYN | GSK3A | HER2 | INSRR | IRAK3 | JAK1 | LCK | LIMK1 | LIMK2 | LMTK2 | LYN | MAP2K1 | MAP2K2 | MAP4K2 | MAPK1 | MAPK4 | MAPKAPK2 | MKNK1 | NTRK2
